In US20140134737, “Alternative Splicing Modulators and Splice Variants and Their Use in the Control and Detection of Pluripotency and Differentiation” (Governing Council of the University of Toronto, published 2014):
A weaker result is weaker than the reference pair of the same experiment. Tags and fusion partners may be left off the protein sequences shown. Construct, isoform or probe ends are uncertain for at least one entry.

Key:
[1] = test system: T1, FOXP1-ES forkhead domain (exon 18b) (Homo sapiens); assay: EMSA; conditions: purified recombinant protein, protein details: GST fusion
T1 sequence (limits assumed): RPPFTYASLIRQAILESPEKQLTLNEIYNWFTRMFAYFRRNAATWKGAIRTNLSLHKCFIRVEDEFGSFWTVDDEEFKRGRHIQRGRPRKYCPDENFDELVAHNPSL

[2] = biological target: T2, FOXP1 forkhead domain (canonical, exon 18) (Homo sapiens) (UniProt Q9H334); assay: EMSA; conditions: purified recombinant protein, protein details: GST fusion
T2 sequence (limits assumed): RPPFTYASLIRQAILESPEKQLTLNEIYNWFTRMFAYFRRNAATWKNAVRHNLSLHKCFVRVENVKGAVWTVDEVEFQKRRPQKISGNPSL

[3] = PBM-derived high-affinity FOXP1-ES motif, label: radiolabeled
[4] = FOXP1-ES preferred over FOXP1, label: radiolabeled
[5] = motif bound by both isoforms, label: radiolabeled

Sequence: ATACAAAACCATACAAAA (double strand) [ATACAAAA x2 probe]
- binding result [1, 3]: binds

Sequence: CGATACAACCCGATACAA (double strand) [CGATACAA x2 probe]
- binding result ([1]; preferentially bound by FOXP1-ES, also top PBM motif, label: radiolabeled): binds
- binding result [2, 4]: binds more weakly

Sequence: GTAAACAACCGTAAACAA (double strand) [GTAAACAA x2 probe]
- binding result ([1]; 0.2-3.2 pmol protein, FOXP1 preferred over FOXP1-ES): binds more weakly
- binding result ([2]; 0.2-3.2 pmol protein, preferred by FOXP1, also top PBM motif): binds

Sequence: CTAAACAACCCTAAACAA (double strand) [CTAAACAA x2 probe]
- binding result [1, 3]: binds

Sequence: AATAAACACCAATAAACA (double strand) [AATAAACA x2 probe]
- binding result [2, 4]: binds more weakly

Sequence: CAACACAACCCAACACAA (double strand) [CAACACAA x2 probe]
- binding result [1, 3]: binds

Sequence: AACAACAACCAACAACAA (double strand) [AACAACAA x2 probe]
- binding result [1, 5]: binds
- binding result [2, 5]: binds
